Reference: PubChem BioAssay AID686937 (Drosophila RNAi Screening Center, 2013)
Test: 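Genes whose loss weakens secretory pathway function in fly cells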 (primary screen). Cell system: Drosophila S2 cells expressing secreted horseradish peroxidase. Reagents: long dsRNA against Drosophila genes. Timing: about 5.5 days (5 days dsRNA, then 12 h reporter induction). Treatment: reporter expression induced after 5 days of dsRNA, read 12 h later; inducer not stated. Detection: 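After 5 days of dsRNA and 12 h of reporter induction, medium peroxidase read by chemiluminescence and scored as per-plate z-score; higher values mean more reporter released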. Reading the numbers: z-score: higher = more reporter secreted into medium.
The screen tested about 23,000 reagents; below is an unselected part of those that have a named target and a result. 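Reduced-secretion tags in replicate 1 do not always agree with the z-scores; no criterion for assigning the tags was given.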 A plus sign joins genes that one reagent is predicted to hit. Not stated in the record: the amount of reagent.

target | DRSC id | z-score, replicate 1 | z-score, replicate 2
tef (GeneID 36920) | DRSC07301 | -0.09 | 0.3
tef (GeneID 36920) | DRSC22041 | 0.17 | -0.16
CG11374 (GeneID 33163) | DRSC00306 | 0.35 | 0.21
pain (GeneID 37985) | DRSC04273 | 0.24 | 0.31
CG30184 (GeneID 246506) | DRSC22277 | -0.72 | 0
CG5412 (GeneID 42434) | DRSC15796 | 0.42 | 0.42
S-Lap3 (GeneID 326187) | DRSC10956 | 0.16 | -0.52
CG13928 (GeneID 38195) | DRSC08397 | 0.53 | 0.41
Alp8 (GeneID 37540) | DRSC04353 | 0.24 | 0.17
CG6790 (GeneID 41388) | DRSC16117 | 0.42 | 0.45
Polr3E (GeneID 40325) | DRSC11880 | 0.01 | -2.86
hng3 (GeneID 38090) | DRSC08367 | 0.48 | 0.37
CG42613 (GeneID 42269) | DRSC13332 | 0.36 | 0.63
CG42613 (GeneID 42269) | DRSC14769 | -0.9 | -1
CG42613 (GeneID 42269) | DRSC15802 | 0.17 | 0.5
CG42613 (GeneID 42269) | DRSC22613 | -0.38 | -0.05
Tbc1d22 (GeneID 42498) | DRSC15867 | -0.41 | -0.08
corn (GeneID 38786) | DRSC11021 | 0.32 | 0.3
corn (GeneID 38786) | DRSC21943 | 0.19 | 0.25
CG8507 (GeneID 41205) | DRSC16435 | 0.31 | 0.12
CG11000 (GeneID 40721) | DRSC12082 | 0.38 | 0.24
CG11000 (GeneID 40721) | DRSC12158 | 0.3 | 0.18
CG10949 (GeneID 35310) | DRSC02112 | 0.18 | 0.23
Obp57c (GeneID 37311) | DRSC06384 | 0.38 | 0.43
CG18268 + CG3014 | DRSC15319 | 0.13 | 0.19
beta-Spec (GeneID 32746) | DRSC20311 | 0.26 | 0.47
Grik (GeneID 42476) | DRSC15846 | 0.51 | 0.35
Grik (GeneID 42476) | DRSC15847 | 0.18 | 0.05
CG13455 (GeneID 39667) | DRSC10002 | 0.09 | 0.17
Baldspot (GeneID 39860) | DRSC09671 | 0.29 | 0.24
CG42588 (GeneID 39457) | DRSC09820 | -0.63 | 0.28
CG42588 (GeneID 39457) | DRSC22121 | -0.14 | 0.05
Fer3 (GeneID 41411) | DRSC16133 | 0.34 | 0.07
